Results on three molecules are retold here after PMC4214668.

Chains of the proteins cited; added tags and fusions are not shown. Lines headed by an entry give the natural chain unless they say otherwise; changes in a name come on top.
UniProt O00308: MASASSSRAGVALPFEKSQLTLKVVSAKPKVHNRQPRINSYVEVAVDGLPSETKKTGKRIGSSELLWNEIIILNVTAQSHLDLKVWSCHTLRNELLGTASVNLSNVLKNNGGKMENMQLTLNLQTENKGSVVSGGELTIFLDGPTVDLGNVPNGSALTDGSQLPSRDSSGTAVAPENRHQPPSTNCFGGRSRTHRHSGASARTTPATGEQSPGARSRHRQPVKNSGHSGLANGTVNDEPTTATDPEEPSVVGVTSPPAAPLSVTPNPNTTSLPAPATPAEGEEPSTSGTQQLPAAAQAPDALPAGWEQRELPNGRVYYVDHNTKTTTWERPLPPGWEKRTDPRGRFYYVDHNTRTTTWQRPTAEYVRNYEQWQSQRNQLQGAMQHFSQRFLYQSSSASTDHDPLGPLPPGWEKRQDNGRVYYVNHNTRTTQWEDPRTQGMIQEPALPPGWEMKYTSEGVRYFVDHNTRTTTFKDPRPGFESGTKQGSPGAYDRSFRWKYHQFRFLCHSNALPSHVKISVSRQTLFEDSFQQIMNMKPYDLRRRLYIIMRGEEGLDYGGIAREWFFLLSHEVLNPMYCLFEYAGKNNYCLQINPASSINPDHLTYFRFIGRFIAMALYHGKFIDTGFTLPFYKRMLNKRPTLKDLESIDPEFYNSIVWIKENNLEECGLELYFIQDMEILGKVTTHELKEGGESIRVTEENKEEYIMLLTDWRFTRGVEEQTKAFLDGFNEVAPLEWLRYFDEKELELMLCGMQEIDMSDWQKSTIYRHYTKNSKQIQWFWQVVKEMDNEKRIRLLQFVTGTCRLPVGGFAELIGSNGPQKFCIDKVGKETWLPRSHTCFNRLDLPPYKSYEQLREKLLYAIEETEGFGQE
UniProt Q06330: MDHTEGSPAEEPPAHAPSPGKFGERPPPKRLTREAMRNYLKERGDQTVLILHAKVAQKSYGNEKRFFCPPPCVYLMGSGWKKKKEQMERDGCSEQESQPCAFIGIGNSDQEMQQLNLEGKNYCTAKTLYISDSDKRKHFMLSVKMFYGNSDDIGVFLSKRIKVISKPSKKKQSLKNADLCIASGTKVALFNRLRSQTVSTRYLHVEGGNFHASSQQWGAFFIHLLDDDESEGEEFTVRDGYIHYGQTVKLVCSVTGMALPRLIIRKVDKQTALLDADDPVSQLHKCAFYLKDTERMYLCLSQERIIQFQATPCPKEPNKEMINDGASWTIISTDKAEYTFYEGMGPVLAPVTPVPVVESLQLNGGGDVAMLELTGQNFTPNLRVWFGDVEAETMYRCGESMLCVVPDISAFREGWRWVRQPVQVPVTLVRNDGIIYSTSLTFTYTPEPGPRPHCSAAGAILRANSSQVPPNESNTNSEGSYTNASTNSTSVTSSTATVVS
UniProt P46531: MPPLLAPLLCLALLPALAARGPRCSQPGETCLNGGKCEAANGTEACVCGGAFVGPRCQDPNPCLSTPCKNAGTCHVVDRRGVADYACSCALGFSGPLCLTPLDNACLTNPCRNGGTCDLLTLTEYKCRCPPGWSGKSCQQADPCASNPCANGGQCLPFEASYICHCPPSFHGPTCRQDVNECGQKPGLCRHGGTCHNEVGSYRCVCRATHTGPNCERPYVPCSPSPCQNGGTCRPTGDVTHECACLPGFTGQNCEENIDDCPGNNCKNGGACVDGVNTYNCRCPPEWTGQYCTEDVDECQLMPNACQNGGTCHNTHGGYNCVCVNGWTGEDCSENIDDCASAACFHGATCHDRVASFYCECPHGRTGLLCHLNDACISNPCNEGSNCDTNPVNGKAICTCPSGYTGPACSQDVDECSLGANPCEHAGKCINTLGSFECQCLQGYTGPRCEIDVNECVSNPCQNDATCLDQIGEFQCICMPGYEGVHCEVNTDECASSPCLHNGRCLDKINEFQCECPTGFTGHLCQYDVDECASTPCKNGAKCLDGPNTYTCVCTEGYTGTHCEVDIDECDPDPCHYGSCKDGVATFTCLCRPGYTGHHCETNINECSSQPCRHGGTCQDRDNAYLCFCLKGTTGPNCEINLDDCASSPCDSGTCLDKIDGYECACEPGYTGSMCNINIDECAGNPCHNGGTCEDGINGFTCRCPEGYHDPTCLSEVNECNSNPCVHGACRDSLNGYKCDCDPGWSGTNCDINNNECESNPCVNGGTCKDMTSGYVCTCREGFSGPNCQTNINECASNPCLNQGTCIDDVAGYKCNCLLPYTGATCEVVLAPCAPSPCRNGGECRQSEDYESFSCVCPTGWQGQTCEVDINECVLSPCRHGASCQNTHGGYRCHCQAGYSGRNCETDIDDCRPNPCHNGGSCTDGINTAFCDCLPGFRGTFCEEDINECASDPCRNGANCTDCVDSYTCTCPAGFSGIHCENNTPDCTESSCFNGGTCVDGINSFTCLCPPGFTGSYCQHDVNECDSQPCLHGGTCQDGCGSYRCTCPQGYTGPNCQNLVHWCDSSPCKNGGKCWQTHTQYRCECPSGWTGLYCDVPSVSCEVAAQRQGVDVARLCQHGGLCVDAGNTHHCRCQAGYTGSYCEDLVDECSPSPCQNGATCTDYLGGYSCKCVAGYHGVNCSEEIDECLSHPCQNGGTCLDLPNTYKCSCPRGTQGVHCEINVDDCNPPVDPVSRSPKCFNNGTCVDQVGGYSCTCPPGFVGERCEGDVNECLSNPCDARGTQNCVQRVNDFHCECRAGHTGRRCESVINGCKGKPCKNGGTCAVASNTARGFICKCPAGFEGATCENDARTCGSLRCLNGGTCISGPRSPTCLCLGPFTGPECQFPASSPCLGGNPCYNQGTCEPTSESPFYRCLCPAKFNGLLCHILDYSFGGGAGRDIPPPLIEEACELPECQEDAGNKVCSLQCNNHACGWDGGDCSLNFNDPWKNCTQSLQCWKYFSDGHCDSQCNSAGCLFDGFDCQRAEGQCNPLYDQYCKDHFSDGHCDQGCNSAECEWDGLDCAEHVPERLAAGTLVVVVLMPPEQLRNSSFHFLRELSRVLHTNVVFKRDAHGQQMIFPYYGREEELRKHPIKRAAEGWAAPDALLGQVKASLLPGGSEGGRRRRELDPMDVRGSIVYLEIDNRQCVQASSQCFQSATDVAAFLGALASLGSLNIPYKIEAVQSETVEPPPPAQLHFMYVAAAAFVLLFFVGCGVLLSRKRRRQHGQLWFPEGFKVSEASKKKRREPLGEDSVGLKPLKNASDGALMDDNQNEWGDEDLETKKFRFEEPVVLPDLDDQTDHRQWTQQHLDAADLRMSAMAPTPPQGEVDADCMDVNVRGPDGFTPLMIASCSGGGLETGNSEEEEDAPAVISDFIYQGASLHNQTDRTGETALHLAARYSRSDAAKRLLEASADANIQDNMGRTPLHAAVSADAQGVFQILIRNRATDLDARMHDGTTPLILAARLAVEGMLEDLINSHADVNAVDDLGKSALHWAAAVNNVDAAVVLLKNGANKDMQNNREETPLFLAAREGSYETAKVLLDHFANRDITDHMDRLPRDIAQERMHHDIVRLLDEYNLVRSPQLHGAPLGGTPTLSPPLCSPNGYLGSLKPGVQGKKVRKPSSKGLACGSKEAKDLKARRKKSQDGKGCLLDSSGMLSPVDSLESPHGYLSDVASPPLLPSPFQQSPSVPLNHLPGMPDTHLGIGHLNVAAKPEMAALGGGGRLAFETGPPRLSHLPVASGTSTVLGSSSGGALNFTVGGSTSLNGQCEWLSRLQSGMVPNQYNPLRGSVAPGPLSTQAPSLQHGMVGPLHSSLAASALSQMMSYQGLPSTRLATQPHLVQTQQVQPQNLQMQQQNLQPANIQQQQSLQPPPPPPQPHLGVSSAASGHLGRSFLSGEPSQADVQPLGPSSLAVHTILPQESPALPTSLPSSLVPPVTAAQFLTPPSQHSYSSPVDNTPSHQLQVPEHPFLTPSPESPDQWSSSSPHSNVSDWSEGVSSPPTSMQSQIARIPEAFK

Where two headings read alike, the source gives them in different places. Results are given in words; binding and its absence hold for the method and conditions named. For some assays here: Binding seen in cells or lysates may run through a third protein. Some binding calls cover weakened binding; strength is not graded here. For some assays here: Sequences can lack the tags named with a protein.

Assay [1] has as its target FLAG-tagged WWP2 (wild type, full length) expressed in HEK293T cells (human) (UniProt O00308). Briefly: co-IP; HEK293T (293T, 293) cells transiently co-transfected with FLAG-tagged WWP2 constructs and V5-tagged Notch constructs (in Figure 3 also HA-ubiquitin); lysis in 50 mM Tris pH 8.0, 150 mM NaCl, 1% NP40; IP with anti-FLAG M2 gel or anti-V5 agarose, western blot with the respective antibody. For orientation: Immunoblotting shows a protein as a band on a membrane.

The target in assay [2] is WWP2, spot on the human proteome microarray (human) (UniProt O00308). Briefly: peptide or protein array; human proteome microarray of 16,368 full-length human recombinant proteins spotted in duplicate; blocked with 2% BSA in PBS, incubated with purified N3-ICD-V5 for 1 hr at room temperature, washed in TBST, detected with mouse anti-V5 and Alexafluor 647 anti-mouse; both purified.

For assay [3], the target named is RBPJ (CSL), spot on the human proteome microarray (human) (UniProt Q06330). The description is as above.
Assay [4] deals with recombinant WWP2-GST (human) (UniProt O00308). Briefly: pull-down; GST-WWP2 or control GST bound to glutathione-Sepharose beads, incubated with increasing concentrations of rhN3-ICD for 1 hr at 4°C; western blot with anti-GST or anti-V5; flow through also blotted; both purified.
For assay [5], the target named is FLAG-tagged WWP2 (wild type, full length) expressed in HEK293T cells (human) (UniProt O00308). Briefly: co-IP; HEK293T (293T, 293) cells transiently co-transfected with FLAG-tagged WWP2 constructs and V5-tagged Notch constructs (in Figure 3 also HA-ubiquitin); lysis in 50 mM Tris pH 8.0, 150 mM NaCl, 1% NP40; IP with anti-FLAG M2 gel or anti-V5 agarose, western blot with the respective antibody. This is another data set of the same source.

Consider “Notch1/Notch3 chimera (Notch1 RAM domain and ANK repeats joined to the C-terminal PEST domain of Notch3), V5-tagged (from UniProt P46531 1754-2114; Q9UM47 2026-2321)”, for which the binding result in assay [1] is given as “binds”.

B1: recombinant human N3-ICD-V5 (Notch3 intracellular cytoplasmic domain, Met1663-Ala2321) (domain or fragment, UniProt Q9UM47 1663-2321)
chain: MVARRKREHSTLWFPEGFSLHKDVASGHKGRREPVGQDALGMKNMAKGESLMGEVATDWMDTECPEAKRLKVEEPGMGAEEAVDCRQWTQHHLVAADIRVAPAMALTPPQGDADADGMDVNVRGPDGFTPLMLASFCGGALEPMPTEEDEADDTSASIISDLICQGAQLGARTDRTGETALHLAARYARADAAKRLLDAGADTNAQDHSGRTPLHTAVTADAQGVFQILIRNRSTDLDARMADGSTALILAARLAVEGMVEELIASHADVNAVDELGKSALHWAAAVNNVEATLALLKNGANKDMQDSKEETPLFLAAREGSYEAAKLLLDHFANREITDHLDRLPRDVAQERLHQDIVRLLDQPSGPRSPPGPHGLGPLLCPPGAFLPGLKAAQSGSKKSRRPPGKAGLGPQGPRGRGKKLTLACPGPLADSSVTLSPVDSLDSPRPFGGPPASPGGFPLEGPYAAATATAVSLAQLGGPGRAGLGRQPPGGCVLSLGLLNPVAVPLDWARLPPPAPPGPSFLLPLAPGPQLLNPGTPVSPQERPPPYLAVPGHGEEYPAAGAHSSPPKARFLRVPSEHPYLTPSPESPEHWASPSPPSLSDWSESTPSPATATGAMATTTGALPAQPLPLSVPSSLAQAQTQLGPQPEVTPKRQVLA
As for B1, the binding entry in assay [2], in assay [3] and in assay [4] was “binds” throughout.

B2: V5-tagged Notch4-ICD (Val 1467-Lys 2003) (domain or fragment, UniProt Q99466 1467-2003)
chain: VLQLIRRRRREHGALWLPPGFTRRPRTQSAPHRRRPPLGEDSIGLKALKPKAEVDEDGVVMCSGPEEGEEVGQAEETGPPSTCQLWSLSGGCGALPQAAMLTPPQESEMEAPDLDTRGPDGVTPLMSAVCCGEVQSGTFQGAWLGCPEPWEPLLDGGACPQAHTVGTGETPLHLAARFSRPTAARRLLEAGANPNQPDRAGRTPLHAAVAADAREVCQLLLRSRQTAVDARTEDGTTPLMLAARLAVEDLVEELIAAQADVGARDKWGKTALHWAAAVNNARAARSLLQAGADKDAQDNREQTPLFLAAREGAVEVAQLLLGLGAARELRDQAGLAPADVAHQRNHWDLLTLLEGAGPPEARHKATPGREAGPFPRARTVSVSVPPHGGGALPRCRTLSAGAGPRGGGACLQARTWSVDLAARGGGAYSHCRSLSGVGAGGGPTPRGRRFSAGMRGPRPNPAIMRGRYGVAAGRGGRVSTDDWPCDWVALGACGSASNIPIPPPCLTPSPERGSPQLDCGPPALQEMPINQGGEGKK
In the case of B2, the binding entry in assay [5] is given as “no binding”.
